In PubChem BioAssay AID493014 (National Center for Advancing Translational Sciences (NCATS), 2011):
Several values for one entry are separate records, joined by “and”; a condition that tells them apart may be missing. Equal entries are not always repeated. Some of the results follow. The main result of the screen is listed elsewhere. These columns were measured beside it and carry no call. Compounds called inactive in the main read-out are mostly missing here. Words in brackets tell the shape of the fitted curve; partial curves, single points and poor fits give uncertain potencies.

Test: qHTS Assay to Find Inhibitors of Chronic Active B-Cell Receptor Signaling
Conditions: ABC-DLBCL IkBa-CBG/CBR reporter, luminescence ratio (green luciferase fused to IkBa over red control in TMD8 lymphoma cells), 4 h
Summary of the method: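 Concentration-response series (up to 46 uM) were applied to TMD8 dual-reporter cells for 4 h at 37C with doxycycline. Green/red ratio, after filter-overlap correction, defined %Activity; red signal alone was normalised to basal cells and zero luminescence.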

[1] = measured here: CBR red luminescence, cell number
[2] = measured here: IkBa-CBG green luminescence

SMILES | AC50 [1] | AC50 [2]
CN(C(=O)/C=C/c1ccc([N+](=O)[O-])s1)c1ccccc1 | 17.8 µM [falling, single point] | –
O=C(Cn1nnc(-c2ccccc2)n1)Nc1cccc(S(=O)(=O)N2CCCC2)c1 | 29.1 µM [falling, single point] | –
NC(=O)CSc1nc(-c2ccccc2)nc2ccccc12 | 7.94 µM [falling, partial curve] | –
O=C(/C=C/NCc1ccc(F)cc1)c1ccccc1 | 2.59 µM [rising, full curve] | –
COC(=O)c1ccccc1N/C=C/C(=O)c1ccc(Br)cc1 | 8.2 µM [falling, partial curve] | –
Cn1c(SCC(=O)Nc2cccc3ccccc23)nc(O)cc1=O | 0.517 µM [falling, full curve] | 0.517 µM [rising, full curve, poor fit]
Cc1ccc(-c2nnc(Nc3ccc4c(c3)OCO4)c3ccccc23)cc1S(=O)(=O)NCCO | 6.51 µM [falling, partial curve] | –
CCC(C)C(NC(N)=O)C(=O)Nc1ccc(C(=O)OC)cc1 (stereo not drawn) | 35.5 µM [falling, single point] | –
Cc1ccc(Nc2nc(CSc3nnc(-c4ccccc4C)n3C)cs2)cc1 | 32.6 µM [falling, single point] | –
COCCn1c(=S)[nH]c2cc(OC)c(OC)cc2c1=O | 0.651 µM [falling, full curve, poor fit] | –
COc1ccc(-c2noc(C3CCCN(C(=O)c4c(F)cccc4F)C3)n2)cc1OC (stereo not drawn) | 1.26 µM [rising, full curve, poor fit] | –
CCOc1cc(C=C2C(=O)c3ccccc3C2=O)ccc1OCC(=O)Nc1ccc(C)cc1 | 0.164 µM [rising, full curve, poor fit] | –
CC(/C=N/NC(=O)NC1CCCCC1)=C\c1ccccc1 | 11.2 µM [rising, partial curve] | –
O=C(CNC(=O)c1ccc(Cl)cc1)OCCCOC(=O)CNC(=O)c1ccc(Cl)cc1 | 10 µM [rising, partial curve] | –
COc1ccc(-c2nc(CSCC(=O)NC3CCCc4ccccc43)c(C)o2)cc1OC (stereo not drawn) | 0.164 µM [rising, full curve, poor fit] | –
COc1ccc(OC)c(-c2nnc3n2N=C(c2ccc(OC)c(OC)c2)CS3)c1 | 651 nM [rising, full curve, poor fit] and 1.3 µM [rising, full curve] | 1.46 µM [falling, full curve] and 580 nM [falling, full curve]
Cn1c(NN)nc2sc3c(c2c1=O)CCC3 | 2.91 µM [falling, full curve] | –
CCOc1ccc(CC(=O)OCN2C(=O)c3ccccc3C2=O)cc1 | 10 µM [rising, partial curve, poor fit] | –
CCCc1cc(=O)[nH]c(SCC(=O)c2c(N)n(C)c(=O)n(C)c2=O)n1 | 1.12 µM [rising, partial curve] | –
Cc1noc(C)c1C(=O)Nc1sc2c(c1C(N)=O)CCC2 | 0.731 µM [falling, full curve, poor fit] | –
COc1cc(OC)cc(C(=O)NC(C)CNc2ccc(Cl)cc2[N+](=O)[O-])c1 (stereo not drawn) | 35.5 µM [falling, single point] | –

SMILES | AC50 [1] | AC50 [2]
Oc1ccc(-c2ccccc2)cc1CN1CCCCCC1 | 35.5 µM [falling, single point] | –
CCOc1ccccc1NC(=O)Nc1ccc2c(c1)CCC2 | 35.5 µM [falling, single point] | –
COc1cccc(NS(=O)(=O)c2ccc3c(c2)NC(=O)C(C)S3)c1 (stereo not drawn) | 22.4 µM [falling, single point] | –
CCOC(=O)c1ccc(Oc2nc(C)nc3c2oc2ccccc23)cc1 | 0.355 µM [rising, full curve, poor fit] | –
COC(=O)c1cc(NC(=O)CN(c2ccccc2OC)S(=O)(=O)c2ccccc2)ccc1Cl | 11.2 µM [falling, partial curve, poor fit] | –
COC(=O)c1ccc(NC(=O)C(=O)c2cccn2C)cc1 | 7.94 µM [falling, partial curve] | –
Cc1ccc(C)c(NC(=O)COC(=O)c2cc(=O)c3ccccc3o2)c1 | 20.6 µM [rising, partial curve, poor fit] | –
COc1ccc(S(=O)(=O)NCCSCc2ccco2)cc1Cl | 4.11 µM [rising, partial curve, poor fit] | –
C/C(CC1CC(C)(C)OC1=O)=N/Nc1nc(-c2ccccc2)cs1 (stereo not drawn) | 16.4 µM [falling, partial curve] | –
CC(c1ccco1)N(C(=O)c1ccc(Cl)s1)c1ccccn1 (stereo not drawn) | 0.891 µM [rising, partial curve, poor fit] | –
Cc1cc(C)cc(OCC(=O)Nc2ccc(F)cc2)c1 | 14.1 µM [falling, partial curve, poor fit] | –
COc1cccc(N2CCN(CC(=O)Nc3nc(C)c(C(=O)N(C)C)s3)CC2)c1 | 3.98 µM [rising, full curve, poor fit] | –
CC(C)CNC(=O)C(=O)Nc1ccc2c(c1)N(S(=O)(=O)c1cccs1)CCC2 | 4.11 µM [rising, single point] | –
Cc1[nH]c2ccccc2c1SCc1nnc(SCc2ccccc2)n1C | 0.1 µM [rising, full curve, poor fit] | –
CC(C)CNC(C(=O)Nc1ccc([N+](=O)[O-])cc1Br)c1ccccc1 (stereo not drawn) | – | 18.4 µM [rising, partial curve, poor fit]
O=C(NCN1CCN(CCO)CC1)c1cnccn1 | 0.00461 µM [rising, full curve, poor fit] | –
CCCC1(c2ccccc2)NC(=O)N(CC(=O)NCc2ccc(C)cc2)C1=O (stereo not drawn) | 0.794 µM [rising, full curve, poor fit] | –
CN(C)CCOC(=O)C12CC3(C)CC(C)(CC(C)(C3)C1)C2 | 0.82 µM [falling, partial curve, poor fit] | –
COc1ccc(C(C[N+](=O)[O-])c2c(-c3ccccc3)cc3ccccn23)c(OC)c1 (stereo not drawn) | 6.51 µM [falling, partial curve, poor fit] | –
O=C(O)CCCC(=O)Nc1ccn(-c2ccccc2)n1 | 3.16 µM [falling, full curve] | –
CN(C)c1cc(N/N=C/c2ccc(Cl)cc2)nc(N(C)C)n1 | 17.8 µM [rising, partial curve, poor fit] | –

Already shown: entries from further up.
SMILES | AC50 [1] | AC50 [2]
COc1cccc(NS(=O)(=O)c2ccc3c(c2)NC(=O)C(C)S3)c1 (stereo not drawn) | 22.4 µM [falling, single point] | –
CCOC(=O)c1ccc(Oc2nc(C)nc3c2oc2ccccc23)cc1 | 0.355 µM [rising, full curve, poor fit] | –
COC(=O)c1cc(NC(=O)CN(c2ccccc2OC)S(=O)(=O)c2ccccc2)ccc1Cl | 11.2 µM [falling, partial curve, poor fit] | –
COC(=O)c1ccc(NC(=O)C(=O)c2cccn2C)cc1 | 7.94 µM [falling, partial curve] | –
Cc1ccc(C)c(NC(=O)COC(=O)c2cc(=O)c3ccccc3o2)c1 | 20.6 µM [rising, partial curve, poor fit] | –
COc1ccc(S(=O)(=O)NCCSCc2ccco2)cc1Cl | 4.11 µM [rising, partial curve, poor fit] | –
C/C(CC1CC(C)(C)OC1=O)=N/Nc1nc(-c2ccccc2)cs1 (stereo not drawn) | 16.4 µM [falling, partial curve] | –
CC(c1ccco1)N(C(=O)c1ccc(Cl)s1)c1ccccn1 (stereo not drawn) | 0.891 µM [rising, partial curve, poor fit] | –
Cc1cc(C)cc(OCC(=O)Nc2ccc(F)cc2)c1 | 14.1 µM [falling, partial curve, poor fit] | –
COc1cccc(N2CCN(CC(=O)Nc3nc(C)c(C(=O)N(C)C)s3)CC2)c1 | 3.98 µM [rising, full curve, poor fit] | –
CC(C)CNC(=O)C(=O)Nc1ccc2c(c1)N(S(=O)(=O)c1cccs1)CCC2 | 4.11 µM [rising, single point] | –
Cc1[nH]c2ccccc2c1SCc1nnc(SCc2ccccc2)n1C | 0.1 µM [rising, full curve, poor fit] | –
CC(C)CNC(C(=O)Nc1ccc([N+](=O)[O-])cc1Br)c1ccccc1 (stereo not drawn) | – | 18.4 µM [rising, partial curve, poor fit]
O=C(NCN1CCN(CCO)CC1)c1cnccn1 | 0.00461 µM [rising, full curve, poor fit] | –
CCCC1(c2ccccc2)NC(=O)N(CC(=O)NCc2ccc(C)cc2)C1=O (stereo not drawn) | 0.794 µM [rising, full curve, poor fit] | –
CN(C)CCOC(=O)C12CC3(C)CC(C)(CC(C)(C3)C1)C2 | 0.82 µM [falling, partial curve, poor fit] | –
COc1ccc(C(C[N+](=O)[O-])c2c(-c3ccccc3)cc3ccccn23)c(OC)c1 (stereo not drawn) | 6.51 µM [falling, partial curve, poor fit] | –
O=C(O)CCCC(=O)Nc1ccn(-c2ccccc2)n1 | 3.16 µM [falling, full curve] | –

Going on with the list:

SMILES | AC50 [1] | AC50 [2]
O=C(OCCN1C(=O)c2cccc3c(N4CCOCC4)ccc(c23)C1=O)c1ccccc1Cl | 20.6 µM [falling, single point] | –
CCOC(=O)c1c(C)[nH]c(C)c1C(=O)COC(=O)/C=C/c1cccc(F)c1 | 32.6 µM [rising, partial curve, poor fit] | –
O=C(OCC(=O)N1CCCc2ccccc21)c1cnc(Cl)c(Cl)c1 | 2.31 µM [falling, partial curve, poor fit] | –
CCOc1ccc(C(=O)NCC(=O)OCC(=O)Nc2ccccc2OCC)cc1 | 32.6 µM [rising, single point] | –
Cc1c(C(=O)N2CCc3ccccc3C2)sc2nc(-c3ccccc3)cn12 | 29.1 µM [falling, single point] | –
COC(=O)NCC(C)OC(=O)Nc1cccc(Cl)c1 (stereo not drawn) | 3.16 µM [rising, single point] | –
O=C(Nc1ccccc1C(=O)O)c1ccc(Cl)c(S(=O)(=O)N2CCOCC2)c1 | 7.08 µM [falling, partial curve] | –
Cc1ccc(C)c(NC(=O)c2cc(S(=O)(=O)N3CCN(c4cccc(Cl)c4)CC3)ccc2F)c1 | 0.708 µM [rising, full curve, poor fit] | –
CC1CCN(c2ccc3c(c2)S(=O)(=O)c2cccc(C(=O)NCc4cccc(F)c4)c2C3=O)CC1 | 0.461 µM [falling, full curve, poor fit] | –
Cc1ccc(/C=N/Nc2ccc(C(=O)O)cc2)o1 | 0.112 µM [falling, full curve, poor fit] | –
COc1ccccc1CN(C)C(=O)c1ccccc1SCC(=O)N1CCCC1 | 1.16 µM [rising, full curve, poor fit] | –
CCc1ccc(NC(=O)C2CCC(CNC(=O)[C@@H]3Cc4ccccc4CN3)CC2)cc1 (stereo partly drawn) | 14.1 µM [falling, partial curve, poor fit] | –
COc1ccccc1NC(=O)CCC(=O)c1ccc(-c2ccccc2)cc1 | 25.9 µM [rising, single point] | –
CC(=O)N(C)c1ccc(NC(=S)NC(=O)/C=C/c2ccco2)cc1 | 35.5 µM [falling, single point] | –
CC12CC(c3ccccc3O1)C(/C(N)=N/NC(=O)c1ccc(F)cc1)C(=O)N2 (stereo not drawn) | 23.1 µM [falling, partial curve, poor fit] | –
c1ccc2c(SCc3cn4cccnc4n3)ncnc2c1 | 17.8 µM [falling, single point] | –
C#CCOCCOCCOCCNc1nc(N2CCN(C(=O)CCCCCCCCCCNC(=O)Cn3cc(CCCCCN)nn3)CC2)nc(N2CCN(C(=O)CCCCCCCCCCNC(=O)[C@H](CO)n3cc(CCCSC)nn3)CC2)n1 | 20.6 µM [rising, single point] | –
COc1ccc(OC)c(NC(=O)N2CCCC(CNS(=O)(=O)c3cccs3)C2)c1 (stereo not drawn) | 15.8 µM [falling, partial curve, poor fit] | –
O=c1c2c3nc4ccccc4nc3n(/N=C/c3ccccn3)c2ncn1-c1ccccc1 | 1.78 µM [falling, full curve, poor fit] | –
